# Measured values taken from the supplement of paper PMC8728848.
# The other results are listed elsewhere or left out.
# B1: SAG1 (Toxoplasma gondii), P13664 (protein)
# chain: MSVSLHHFIISSGFLTSMFPKAVRRAVTAGVFAAPTLMSFLRCGVMASDPPLVANQVVTCPDKKSTAAVILTPTENHFTLKCPKTALTEPPTLAYSPNRQICPAGTTSSCTSKAVTLSSLIPEAEDSWWTGDSASLDTAGIKLTVPIEKFPVTTQTFVVGCIKGDDAQSCMVTVTVQARASSVVNNVARCSYGADSTLGPVKLSAEGPTTMTLVCGKDGVKVPQDNNQYCSGTTLTGCNEKSFKDILPKLTENPWQGNASSDKGATLTIKKEAFPAESKSVIIGCTGGSPEKHHCTVKLEFAGAAGSAKSAAGTASHVSIFAMVIGLIGSIAACVA
# How the values were obtained:
# Assay in all cases: glycan array binding signal (z-score within array); higher = stronger binding
# Conditions in all cases: glycan notation: IUPAC condensed, linker removed
# [1] = molecular target: Gal6S(b1-4)Glc
# Procedure, shortened: (§1)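 Negative Z-scores can be read as non-binding. The Z-score is calculated within each array and then averaged across arrays of one protein sequence at different concentrations or buffers and across linkers. Arrays, 3228 in all, were curated from the Consortium for Functional Glycomics database and kept only where the protein sequence was available.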
# [2] = molecular target: Gal6S(b1-4)Glc6S
# Procedure, shortened: as §1
# [3] = molecular target: Gal6S(b1-4)GlcNAc
# Procedure, shortened: as §1
# [4] = molecular target: Gal6S(b1-4)GlcNAc6S
# Procedure, shortened: as §1
# [5] = molecular target: GalNAc(a1-3)Gal
# Procedure, shortened: as §1
# [6] = molecular target: GalNAc(a1-3)GalNAc
# Procedure, shortened: as §1
# [7] = molecular target: GalNAc(a1-3)GalNAc(a1-3)Gal(a1-4)Gal(b1-4)GlcNAc
# Procedure, shortened: as §1
# [8] = molecular target: GalNAc(b1-3)Gal
# Procedure, shortened: as §1
# [9] = molecular target: GalNAc(b1-3)Gal(a1-4)Gal(b1-4)GlcNAc
# Procedure, shortened: as §1
# [10] = molecular target: GalNAc(b1-3)Gal(a1-4)Gal(b1-4)GlcNAc(b1-3)Gal(b1-4)Glc
# Procedure, shortened: as §1
# [11] = molecular target: GalNAc(b1-3)Gal(a1-6)Gal(b1-4)Glc
# Procedure, shortened: as §1
# [12] = molecular target: GalNAc(b1-3)GalNAc
# Procedure, shortened: as §1
# [13] = molecular target: GalNAc(b1-4)GlcNAc
# Procedure, shortened: as §1
# [14] = molecular target: GalNAc(b1-4)GlcNAc(b1-2)Man(a1-3)[GalNAc(b1-4)GlcNAc(b1-2)Man(a1-6)]Man(b1-4)GlcNAc(b1-4)GlcNAc
# Procedure, shortened: as §1
# [15] = molecular target: Glc(a1-4)Glc
# Procedure, shortened: as §1
# [16] = molecular target: Glc(a1-6)Glc(a1-6)Glc
# Procedure, shortened: as §1
# [17] = molecular target: Glc(b1-4)Glc
# Procedure, shortened: as §1
# [18] = molecular target: Glc(b1-6)Glc
# Procedure, shortened: as §1
# [19] = molecular target: GlcA(b1-3)Gal
# Procedure, shortened: as §1
# [20] = molecular target: GlcA(b1-3)GlcNAc
# Procedure, shortened: as §1
# [21] = molecular target: GlcA(b1-6)Gal
# Procedure, shortened: as §1
# [22] = molecular target: GlcNAc(a1-3)Gal(b1-4)GlcNAc
# Procedure, shortened: as §1
# [23] = molecular target: GlcNAc(a1-4)Gal(b1-3)GlcNAc
# Procedure, shortened: as §1
# [24] = molecular target: GlcNAc(a1-4)Gal(b1-4)GalNAc
# Procedure, shortened: as §1
# [25] = molecular target: GlcNAc(a1-4)Gal(b1-4)GlcNAc
# Procedure, shortened: as §1
# [26] = molecular target: GlcNAc(a1-4)Gal(b1-4)GlcNAc(b1-3)Gal(b1-4)Glc
# Procedure, shortened: as §1
# [27] = molecular target: GlcNAc(a1-4)Gal(b1-4)GlcNAc(b1-3)Gal(b1-4)GlcNAc
# Procedure, shortened: as §1
# [28] = molecular target: GlcNAc(a1-4)Gal(b1-4)GlcNAc(b1-3)Gal(b1-4)GlcNAc(b1-3)Gal(b1-4)GlcNAc
# Procedure, shortened: as §1
# [29] = molecular target: GlcNAc(a1-4)Gal(b1-4)GlcNAc(b1-3)Gal(b1-4)[Fuc(a1-3)]GlcNAc(b1-3)Gal(b1-4)[Fuc(a1-3)]GlcNAc
# Procedure, shortened: as §1
# [30] = molecular target: GlcNAc(a1-6)Gal(b1-4)GlcNAc
# Procedure, shortened: as §1
# [31] = molecular target: GlcNAc(b1-2)Gal(b1-3)GalNAc
# Procedure, shortened: as §1
# [32] = molecular target: GlcNAc(b1-2)Man(a1-3)[GlcNAc(b1-2)Man(a1-6)]Man(b1-4)GlcNAc(b1-4)GlcNAc
# Procedure, shortened: as §1
# [33] = molecular target: GlcNAc(b1-2)Man(a1-3)[GlcNAc(b1-2)Man(a1-6)]Man(b1-4)GlcNAc(b1-4)[Fuc(a1-6)]GlcNAc
# Procedure, shortened: as §1
# [34] = molecular target: GlcNAc(b1-2)[GlcNAc(b1-4)]Man(a1-3)[GlcNAc(b1-2)Man(a1-6)]Man(b1-4)GlcNAc(b1-4)GlcNAc
# Procedure, shortened: as §1
# [35] = molecular target: GlcNAc(b1-3)Gal
# Procedure, shortened: as §1
# [36] = molecular target: GlcNAc(b1-3)Gal(b1-3)GalNAc
# Procedure, shortened: as §1
# [37] = molecular target: GlcNAc(b1-3)Gal(b1-4)Glc
# Procedure, shortened: as §1
# [38] = molecular target: GlcNAc(b1-3)Gal(b1-4)GlcNAc
# Procedure, shortened: as §1
binder,measurement,setting,value
B1,glycan array binding signal (z-score),[1],-0.579
same,glycan array binding signal (z-score),[2],-0.159
same,glycan array binding signal (z-score),[3],0.798
same,glycan array binding signal (z-score),[4],0.255
same,glycan array binding signal (z-score),[5],-0.761
same,glycan array binding signal (z-score),[6],1.45
same,glycan array binding signal (z-score),[7],-0.145
same,glycan array binding signal (z-score),[8],0.07
same,glycan array binding signal (z-score),[9],0.443
same,glycan array binding signal (z-score),[10],0.64
same,glycan array binding signal (z-score),[11],-0.283
same,glycan array binding signal (z-score),[12],-0.419
same,glycan array binding signal (z-score),[13],0.569
same,glycan array binding signal (z-score),[14],0.967
same,glycan array binding signal (z-score),[15],-0.018
same,glycan array binding signal (z-score),[16],-1.44
same,glycan array binding signal (z-score),[17],-0.71
same,glycan array binding signal (z-score),[18],-0.776
same,glycan array binding signal (z-score),[19],-0.759
same,glycan array binding signal (z-score),[20],-1.04
same,glycan array binding signal (z-score),[21],0.213
same,glycan array binding signal (z-score),[22],0.201
same,glycan array binding signal (z-score),[23],-0.606
same,glycan array binding signal (z-score),[24],-0.225
same,glycan array binding signal (z-score),[25],0.129
same,glycan array binding signal (z-score),[26],0.578
same,glycan array binding signal (z-score),[27],0.015
same,glycan array binding signal (z-score),[28],0.265
same,glycan array binding signal (z-score),[29],2.24
same,glycan array binding signal (z-score),[30],0.575
same,glycan array binding signal (z-score),[31],-0.2
same,glycan array binding signal (z-score),[32],-0.251
same,glycan array binding signal (z-score),[33],-0.104
same,glycan array binding signal (z-score),[34],-0.655
same,glycan array binding signal (z-score),[35],-0.149
same,glycan array binding signal (z-score),[36],0.7
same,glycan array binding signal (z-score),[37],-0.136
same,glycan array binding signal (z-score),[38],-0.25

# Two records picked at random from those above, as already listed:
binder,measurement,setting,value
B1,glycan array binding signal (z-score),[29],2.24
same,glycan array binding signal (z-score),[36],0.7
